Over roughly 33,000 sequences, “E-score (-0.5 to 0.5)” has its median near -0.015; the highest 2% begin near 0.3. Some of the results follow.
The sequences below were run against T1, Abf1 (UniProt P14164) (assay: PBM E-score (8-mer binding enrichment) (E-score (-0.5 to 0.5)); higher = stronger / more preferred TF binding). Conditions: protein concentration: 200 nM; construct: GST-full length.
T1 sequence: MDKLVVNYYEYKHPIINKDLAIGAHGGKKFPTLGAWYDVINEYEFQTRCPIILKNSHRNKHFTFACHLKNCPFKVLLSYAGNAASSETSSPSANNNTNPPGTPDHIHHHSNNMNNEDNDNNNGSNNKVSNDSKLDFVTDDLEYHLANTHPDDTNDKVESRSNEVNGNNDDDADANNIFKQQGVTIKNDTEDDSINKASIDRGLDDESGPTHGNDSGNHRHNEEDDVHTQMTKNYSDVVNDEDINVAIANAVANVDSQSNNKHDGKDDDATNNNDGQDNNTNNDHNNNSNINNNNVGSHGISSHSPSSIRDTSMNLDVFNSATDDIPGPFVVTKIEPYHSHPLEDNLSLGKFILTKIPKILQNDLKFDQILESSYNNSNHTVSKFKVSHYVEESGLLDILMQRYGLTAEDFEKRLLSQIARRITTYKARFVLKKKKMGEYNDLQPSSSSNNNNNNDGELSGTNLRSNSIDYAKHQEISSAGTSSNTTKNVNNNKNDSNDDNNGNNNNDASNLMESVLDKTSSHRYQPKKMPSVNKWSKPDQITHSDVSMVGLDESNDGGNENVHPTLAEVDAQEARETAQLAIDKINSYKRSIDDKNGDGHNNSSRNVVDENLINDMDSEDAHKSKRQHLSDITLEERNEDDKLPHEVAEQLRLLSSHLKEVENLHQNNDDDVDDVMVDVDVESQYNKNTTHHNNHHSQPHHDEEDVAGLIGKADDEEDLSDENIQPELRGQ
Summary of the method: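 Full-length yeast transcription factors or their DNA-binding domains, GST-tagged and expressed with PURExpress, were applied at about 100-200 nM to universal all-10-mer Agilent arrays. These arrays had been made double-stranded by primer extension on fresh or once-stripped slides. Detection used fluorescent anti-GST, normalisation used masliner, and E-scores for ungapped eight-base words pooled with reverse complements came from the Universal PBM Analysis Suite.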

Row | Sequence | PBM E-score
1 | ACCGCAGT | -0.12
2 | ACCGACCC | -0.155
3 | CCCTCTAC | -0.188
4 | AATGATTC | 0.0452
5 | AGCCCGCA | -0.231
6 | ACCTGAGA | -0.0303
7 | TCGGAGCA | -0.0213
8 | CCGAACCA | -0.231
9 | AAATGCCG | 0.0805
10 | GTACTGAC | 0.112
11 | ACATACCT | -0.0525
12 | GCGATTCC | 0.0129
13 | AAATTTGA | 0.0283
14 | CTTACAAG | -0.0672
15 | AGGAGGTC | -0.127
16 | CAGCCCAG | -0.296
17 | AACGCTCT | -0.051
18 | CCCCGTTA | -0.0607
19 | AACTACGG | 0.148
20 | CGATCTTC | 0.00974
21 | AGATGGTC | -0.177
22 | CAGAGTCA | -0.251
23 | TATTCCCA | -0.0277
24 | TATAGGGA | -0.0594
25 | CGGATCCG | -0.0523
26 | GGCCCTAA | -0.0593

Row | Sequence | PBM E-score
27 | CTAGTCAG | 0.0253
28 | GCCGCGGA | 0.0077
29 | AGCCGTTA | 0.117
30 | GCGGGTCA | -0.032
31 | CGGGCAGC | -0.179
32 | CACCCGCG | -0.134
33 | GAGACTAA | 0.056
34 | AATGCGAC | 0.0345
35 | CACGGGAC | 0.221
36 | GCCCAAGC | -0.189
37 | AAAACTTG | 0.0211
38 | GGTCGCCA | -0.074
39 | GCTTGGAC | -0.128
40 | AGTAGCGC | 0.0139
41 | GCAGCCGC | -0.166
42 | CTAAATTA | 0.0644
43 | ATTAACCC | -0.086
44 | ACTAGTGA | 0.182
45 | TAGAATCA | -0.0486
46 | CGGGCCAC | -0.107
47 | CCATCCTA | 0.0483
48 | CCCATGTC | 0.126
49 | CTCCCTTA | -0.165
50 | TCGAAAGA | 0.125
51 | CCCAATGA | -0.00969
52 | AAGGTGCT | -0.17

Reprinted at random: 7 records from the list, in no set order.
Row | Sequence | PBM E-score
30 | GCGGGTCA | -0.032
50 | TCGAAAGA | 0.125
36 | GCCCAAGC | -0.189
33 | GAGACTAA | 0.056
39 | GCTTGGAC | -0.128
34 | AATGCGAC | 0.0345
47 | CCATCCTA | 0.0483

Carrying on:

Row | Sequence | PBM E-score
53 | GACTAGGC | 0.0619
54 | CTAAGCAC | -0.0293
55 | CATCACGG | 0.213
56 | ACGCGTAG | 0.00468
57 | CTCCATCC | -0.203
58 | AACAACCA | 0.161
59 | GGTATGGA | -0.0697
60 | AACTGACC | -0.283
61 | CGATGTAA | 0.00226
62 | ATACAAGA | -0.0309
63 | GGATCTAC | -0.0102
64 | CGATATCC | 0.17
65 | AATGAGCG | 0.0583
66 | GCTTAAAA | 0.0895
67 | CATTTCCA | 0.0465
68 | ATACTGCC | 0.0565
69 | CGTATAAC | 0.366
70 | ACGGCGTC | 0.205
71 | AATTGGTG | 0.0554
72 | GCGTCCAC | -0.161
73 | GTCAGGAA | -0.0436
74 | CCACCTTA | -0.09
75 | CAGTGTCC | -0.0745
76 | ACGCTGAT | 0.0221
77 | AACCGGCT | -0.103
78 | GTAAAATA | 0.0529

Row | Sequence | PBM E-score
79 | ATAGCTTG | 0.00747
80 | ATAATAAG | 0.154
81 | TAGTAAGA | 0.165
82 | CTCGCCCC | -0.161
83 | CAACACCC | -0.197
84 | GTGTTGTA | 0.0206
85 | AGGCTAAC | -0.0365
86 | CGGCGGTC | -0.0753
87 | CCTCACTC | 0.0309
88 | GGACATAA | -0.032
89 | AGCACCCC | -0.142
90 | CTCCAGAA | -0.238
91 | ACATCTAT | 0.192
92 | AACAAGTC | -0.0075
93 | AAGACATA | 0.103
94 | CTCGGGGA | -0.165
95 | ATGGGGCA | -0.356
96 | CAACTGAA | -0.133
97 | GGAGATCA | 0.215
98 | ACCCAGGC | -0.0904
99 | CCGCCGAA | -0.0792
100 | CTCGCAAG | 0.0363
101 | AGTATTAA | 0.174
102 | GTGAGTTA | 0.21
103 | AGTGATGA | 0.366
104 | CGCGGGAA | -0.0427

Row | Sequence | PBM E-score
105 | AGGTAGAA | -0.178
106 | AAAAGGGC | -0.116
107 | GCACGGAA | 0.0639
108 | GCGCATCA | 0.0556
109 | CGAGTTGA | 0.00274
110 | AGCTGCTC | -0.148
111 | GGGACTAA | -0.0888
112 | AAAGGTGC | -0.0948
113 | GGTAGGCA | -0.116
114 | CACGCAAA | -0.194
115 | AATTTCCA | 0.0126
116 | CAGCTTAC | 0.0244
117 | AAGTCCAA | -0.0248
118 | ATCGTACC | 0.0609
119 | CGTCGGAC | 0.173
120 | AAGCGACC | 0.0888
121 | TACAGGGA | -0.19
122 | AATGGCAT | 0.139
123 | AATACTGA | -0.153
124 | GGAGGACA | -0.171
125 | ATGCTTCA | 0.0865
126 | GGGGGCTA | -0.389
127 | AGAACTGG | -0.111
128 | AACGACCA | 0.128
129 | GGACCAGA | -0.0791
130 | GAAACAAC | 0.0849

Row | Sequence | PBM E-score
131 | ACTTTCTA | 0.185
132 | CGAGCTGC | -0.131
133 | TAAGACCA | -0.212
134 | ACATACGG | 0.3
135 | CTCCACCA | -0.188
136 | GGTCTAAA | -0.0643
137 | AATTGATC | 0.11
138 | AGTGAGAT | 0.147
139 | AGTCCCCG | -0.265
140 | GCCCACTA | -0.0762
141 | AGCCTATA | 0.0287
142 | CATAAGGG | -0.0557
143 | GAAACACC | 0.0634
144 | CCGCTGGC | -0.16
145 | CGGGTATA | 0.00121
146 | AGAGCACT | 0.0808
147 | AGGGTCGG | -0.132
148 | CGCAAGTC | -0.259
149 | AGTGTATC | -0.0403
150 | CCCTTGCG | -0.24
151 | ATGCGTAA | 0.195
152 | TATACCCA | -0.0552
153 | AAAAGTTC | 0.00896
154 | ATTTTCTA | 0.259
155 | GGTACCAA | -0.0799
156 | AAACTCTG | -0.0777

Row | Sequence | PBM E-score
157 | CGGGCACC | -0.0646
158 | AGAGGCGG | -0.215
159 | ATGACCGA | 0.0406
160 | CTACCCGA | -0.114
161 | CGTACTAG | 0.267
162 | GGACCTTA | -0.131
163 | CCCTAGGC | -0.176
164 | TAGTGAAA | -0.0802
165 | CCCAGCCG | 0.0358
166 | GTACTTTA | 0.0775
167 | CTGCAACC | -0.157
168 | AACTGATA | 0.0891
169 | CATTTGAA | 0.00275
170 | CTCTCCGC | -0.116
171 | CACTGTCC | 0.125
172 | GCCGAGCC | -0.263
173 | ACACTCGA | -0.0221
174 | CGTGCTGC | 0.134
175 | GTTAGTTA | 0.175
176 | AATAGATG | 0.142

A different layout for some results above.
ATCGTACC
  PBM E-score = 0.0609
AGAACTGG
  PBM E-score = -0.111
AACGACCA
  PBM E-score = 0.128
AGTGAGAT
  PBM E-score = 0.147

A different layout for part of the listing above.

| Row | Sequence | PBM E-score |
| --- | --- | --- |
| 150 | CCCTTGCG | -0.24 |
| 151 | ATGCGTAA | 0.195 |

Source: the supplement of paper PMC3334620
